Measurements published in publication PMC10967792.
Results are given in words; binding and its absence hold for the method and conditions named. Binding seen in cells or lysates may run through a third protein. Some results given as binding are weak or reduced against the parent protein; the word gives no strength.

Chains of the proteins cited; added tags and fusions are not shown. Residues count along the entry.
UniProt P32248, residues 25-378: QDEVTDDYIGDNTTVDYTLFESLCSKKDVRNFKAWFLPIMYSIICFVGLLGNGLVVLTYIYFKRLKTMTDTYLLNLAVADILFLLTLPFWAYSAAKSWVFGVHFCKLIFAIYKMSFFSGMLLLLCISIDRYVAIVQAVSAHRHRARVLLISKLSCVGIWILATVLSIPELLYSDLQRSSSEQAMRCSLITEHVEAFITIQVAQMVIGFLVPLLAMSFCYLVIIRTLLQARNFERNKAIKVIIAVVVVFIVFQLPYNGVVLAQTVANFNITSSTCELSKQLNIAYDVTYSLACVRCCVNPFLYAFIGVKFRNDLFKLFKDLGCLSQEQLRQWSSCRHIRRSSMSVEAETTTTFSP
UniProt P32121: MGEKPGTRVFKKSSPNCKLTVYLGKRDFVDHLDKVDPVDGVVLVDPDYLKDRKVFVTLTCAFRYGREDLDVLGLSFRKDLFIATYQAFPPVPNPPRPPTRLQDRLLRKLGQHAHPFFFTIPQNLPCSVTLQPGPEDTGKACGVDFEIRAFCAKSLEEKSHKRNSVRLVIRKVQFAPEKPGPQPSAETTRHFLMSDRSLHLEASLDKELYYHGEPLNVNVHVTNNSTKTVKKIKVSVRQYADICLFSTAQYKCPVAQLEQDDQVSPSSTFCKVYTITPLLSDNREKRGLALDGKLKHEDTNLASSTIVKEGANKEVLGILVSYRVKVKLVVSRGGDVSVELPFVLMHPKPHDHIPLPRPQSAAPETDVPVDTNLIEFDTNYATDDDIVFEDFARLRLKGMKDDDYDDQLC
UniProt P49407: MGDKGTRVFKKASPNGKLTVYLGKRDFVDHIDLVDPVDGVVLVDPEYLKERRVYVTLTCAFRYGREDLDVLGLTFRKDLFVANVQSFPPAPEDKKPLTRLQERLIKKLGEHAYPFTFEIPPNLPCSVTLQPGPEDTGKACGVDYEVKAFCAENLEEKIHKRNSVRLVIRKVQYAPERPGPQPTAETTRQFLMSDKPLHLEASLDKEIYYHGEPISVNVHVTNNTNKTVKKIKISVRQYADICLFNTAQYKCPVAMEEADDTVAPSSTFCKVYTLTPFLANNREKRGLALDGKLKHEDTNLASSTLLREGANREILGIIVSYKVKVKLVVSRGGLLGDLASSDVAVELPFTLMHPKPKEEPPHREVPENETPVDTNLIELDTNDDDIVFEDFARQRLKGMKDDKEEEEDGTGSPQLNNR

Target: hCCR7-mNeongreen (CCR7 C-terminally tagged with mNeonGreen) (human) (UniProt P32248)
Test: FRET or BRET; NanoBRET in live HEK293A, U87 or CHO-K1 cells transiently co-transfected with CCR7-mNeonGreen (acceptor) and NLuc-β-arrestin (donor); stimulated with CCL19 or CCL21, BRET followed in real time for 25 min; HBSS, 20 mM HEPES, 0.5% FBS, pH 7.4

| binding | Substance |
| --- | --- |
| binds | NLuc-Arrβ2(N) (NanoLuc-tagged β-arrestin2) (from UniProt P32121 1-409) |
| binds | NLuc-Arrβ1(N) (NanoLuc-tagged β-arrestin1) (from UniProt P49407 1-418) |
